{
  "source": "patent EP4800027A1",
  "binders": {"B1": {"name": "GbVIPR1L protein (virus-induced proline-rich protein 1-like protein) (protein)", "chain": "MIPQQMKEAFQSYIAFKSDSSPFSRMAKSTPALSEFDNYHKAKVSSLEEPSKSKSKTIKELVTMSSKLDSLEKGESFLREKIQAQKLKYNDKPDSLRQSNGEAFQKYLEDTTKNLIKAMPNLKANLVLHA"}},
  "target": "RKL1 (leucine-rich repeat receptor-like kinase)",
  "assay": "yeast two-hybrid, firefly luciferase complementation and bimolecular fluorescence complementation, FIG. 5",
  "note": "These are yes or no findings as the source states them, for the method shown. A result given as binding can be weak or reduced; the word gives no strength.",
  "data": [
    {"binder": "B1", "values": [
      {"measurement": "binding", "value": "binds"}
    ]}
  ]
}
